Results deposited as PubChem BioAssay AID504804 (Drosophila RNAi Screening Center, 2011)

Purpose: 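Fly genes whose loss lessens doxorubicin-driven cell death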 (primary screen)
Cells: Drosophila Kc cells
Reagent: long dsRNA against Drosophila genes, 0.5 µg dsRNA per well
Duration: 96 h (48 h knock-down, then 48 h drug)
Treatment: doxorubicin 5 µg/ml for 48 h, added 48 h after dsRNA
Detection: 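Luminescent ATP counts per replicate, not normalised, reflecting viable cells after 48 h dsRNA knock-down followed by 48 h of 5 µg/ml doxorubicin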
Direction: raw ATP luminescence: higher = more viable cells, protection from doxorubicin
Call rule: 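z-score of 2 or more over plate mean in both duplicates, retained only when retests and separate dsRNAs confirm the protection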
In all, the deposit lists about 19,000 reagents; this is a random part of those with a known target gene and a result. Over the whole deposit, 47 (0.25%) are marked active. 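Signals are raw, not normalised; exact z-scores behind calls not deposited; actives needed confirmation, so some wells reaching 2 SD are inactive.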 Reagents against one gene are numbered here. A plus sign joins genes that one reagent is predicted to hit. No sequences are given here.

gene knocked down | reagent | SD above plate mean | raw ATP luminescence, replicate 1 | raw ATP luminescence, replicate 2 | Call
CG13722 | 1 | – | 75960 | 83960 | inactive
Lmpt | 1 | – | 75120 | 76160 | inactive
Lmpt | 2 | – | 43700 | 42243 | inactive
Lmpt | 3 | – | 24603 | 27363 | inactive
Lmpt | 4 | – | 37447 | 37963 | inactive
Lmpt | 5 | – | 40393 | 40053 | inactive
lace | 1 | – | 1.02e5 | 77643 | inactive
TBC1d7 + mRpS24 | 1 | – | 87980 | 76380 | inactive
CG9300 | 1 | – | 20283 | 26027 | inactive
CG8230 | 1 | – | 41793 | 73053 | inactive
Mmp1 | 1 | – | 58370 | 63170 | inactive
mRpL30 | 1 | – | 45860 | 50020 | inactive
CG17283 | 1 | – | 59360 | 82150 | inactive
ChAT | 1 | – | 2.58e5 | 2.80e5 | inactive
ChAT | 2 | – | 58350 | 59900 | inactive
CG14851 | 1 | – | 71370 | 55210 | inactive
fzy | 1 | – | 41537 | 46230 | inactive
Tim13 | 1 | – | 79433 | 65917 | inactive
mas | 1 | – | 34170 | 32277 | inactive
CG3744 | 1 | – | 67680 | 84030 | inactive
CG6153 | 1 | – | 88597 | 52183 | inactive
TTLL1B | 1 | – | 1.02e5 | 93723 | inactive
CG4611 | 1 | – | 89697 | 99063 | inactive
mTTF | 1 | – | 63450 | 95537 | inactive
CG45263 | 1 | – | 90923 | 64500 | inactive
CG45263 | 2 | – | 54113 | 59303 | inactive
CG45263 | 3 | – | 52750 | 73633 | inactive
CG45263 | 4 | – | 52390 | 45627 | inactive
KdelR | 1 | – | 93133 | 80730 | inactive
CAP | 1 | – | 72207 | 94940 | inactive
CAP | 2 | – | 78813 | 48847 | inactive
CAP | 3 | – | 32670 | 64893 | inactive
CAP | 4 | – | 40963 | 58593 | inactive
CAP | 5 | – | 48603 | 79060 | inactive
Act79B | 1 | – | 67760 | 66903 | inactive
CG6628 | 1 | – | 70870 | 68413 | inactive
CG6674 | 1 | – | 48640 | 48107 | inactive
eEFSec | 1 | – | 56950 | 64970 | inactive

Next part; the last 3 above are carried over.
gene knocked down | reagent | SD above plate mean | raw ATP luminescence, replicate 1 | raw ATP luminescence, replicate 2 | Call
CG6628 | 1 | – | 70870 | 68413 | inactive
CG6674 | 1 | – | 48640 | 48107 | inactive
eEFSec | 1 | – | 56950 | 64970 | inactive
conu | 1 | – | 81370 | 1.22e5 | inactive
CG34203 | 1 | – | 59713 | 52423 | inactive
CG9372 | 1 | – | 68287 | 76433 | inactive
ohgt | 1 | – | 48843 | 65947 | inactive
CG8818 | 1 | – | 58050 | 48370 | inactive
CG13285 | 1 | – | 65507 | 64047 | inactive
CG11327 | 1 | – | 32063 | 34837 | inactive
mab-21 | 1 | – | 47120 | 46560 | inactive
GluRIID | 1 | – | 61880 | 65650 | inactive
Wnt4 | 1 | – | 1.63e5 | 1.53e5 | inactive
Wnt4 | 2 | – | 21170 | 34057 | inactive
bs | 1 | – | 36290 | 69267 | inactive
CG42258 | 1 | – | 3.37e5 | 3.09e5 | inactive
CG42258 | 2 | – | 1.04e5 | 1.09e5 | inactive
Cdc5 | 1 | – | 52597 | 50837 | inactive
CG4709 | 1 | – | 82987 | 52803 | inactive
CG17230 | 1 | – | 40260 | 30753 | inactive
CCAP-R | 1 | at least 2 SD above plate mean | 1.06e5 | 93550 | inactive
CCAP-R | 2 | – | 91940 | 80040 | inactive
Ythdf | 1 | – | 76730 | 58530 | inactive
Ythdf | 2 | – | 84110 | 65100 | inactive
CG17726 | 1 | – | 1.71e5 | 2.08e5 | inactive
bbg | 1 | – | 50057 | 45210 | inactive
bbg | 2 | – | 42957 | 39043 | inactive
CG11768 | 1 | – | 43023 | 44493 | inactive
Ercc1 | 1 | – | 60690 | 56520 | inactive
Spn43Ab | 1 | – | 63400 | 77193 | inactive
l(2)05287 | 1 | – | 72770 | 61740 | inactive
l(2)05287 | 2 | – | 61770 | 54060 | inactive
LpR2 | 1 | – | 2.43e5 | 1.93e5 | inactive
LpR2 | 2 | – | 2.16e5 | 1.86e5 | inactive
LpR2 | 3 | – | 40440 | 46710 | inactive
Tmf | 1 | – | 43100 | 48100 | inactive
CG31788 | 1 | – | 2.39e5 | 1.92e5 | inactive
CG32846 | 1 | – | 1.91e5 | 1.33e5 | inactive
CG15800 | 1 | – | 43297 | 51077 | inactive
Khc | 1 | – | 53667 | 62267 | inactive
5PtaseI | 1 | – | 46060 | 45267 | inactive
CG3919 | 1 | – | 24743 | 17967 | inactive
gukh | 1 | – | 48360 | 44410 | inactive
gukh | 2 | – | 35220 | 47760 | inactive
gukh | 3 | – | 38993 | 37347 | inactive
Oamb | 1 | – | 1.60e5 | 1.80e5 | inactive
Oamb | 2 | – | 47280 | 44150 | inactive
Oamb | 3 | – | 69390 | 82490 | inactive
CG15097 | 1 | – | 64890 | 50173 | inactive
